Measured values as given in the supplement of paper PMC11732987, “Enantioselective OTUD7B fragment discovery through chemoproteomics screening and high-throughput optimisation” (Communications Chemistry, 2025).
The other results are listed elsewhere or left out. The data scatter; read single values as rough.

By UniProt entry, the sequences of proteins in these tests, tags left out. Where a name states a change or a piece, a line headed by the entry shows the natural chain unless it says otherwise. Residues count along the entry.
UniProt P42695: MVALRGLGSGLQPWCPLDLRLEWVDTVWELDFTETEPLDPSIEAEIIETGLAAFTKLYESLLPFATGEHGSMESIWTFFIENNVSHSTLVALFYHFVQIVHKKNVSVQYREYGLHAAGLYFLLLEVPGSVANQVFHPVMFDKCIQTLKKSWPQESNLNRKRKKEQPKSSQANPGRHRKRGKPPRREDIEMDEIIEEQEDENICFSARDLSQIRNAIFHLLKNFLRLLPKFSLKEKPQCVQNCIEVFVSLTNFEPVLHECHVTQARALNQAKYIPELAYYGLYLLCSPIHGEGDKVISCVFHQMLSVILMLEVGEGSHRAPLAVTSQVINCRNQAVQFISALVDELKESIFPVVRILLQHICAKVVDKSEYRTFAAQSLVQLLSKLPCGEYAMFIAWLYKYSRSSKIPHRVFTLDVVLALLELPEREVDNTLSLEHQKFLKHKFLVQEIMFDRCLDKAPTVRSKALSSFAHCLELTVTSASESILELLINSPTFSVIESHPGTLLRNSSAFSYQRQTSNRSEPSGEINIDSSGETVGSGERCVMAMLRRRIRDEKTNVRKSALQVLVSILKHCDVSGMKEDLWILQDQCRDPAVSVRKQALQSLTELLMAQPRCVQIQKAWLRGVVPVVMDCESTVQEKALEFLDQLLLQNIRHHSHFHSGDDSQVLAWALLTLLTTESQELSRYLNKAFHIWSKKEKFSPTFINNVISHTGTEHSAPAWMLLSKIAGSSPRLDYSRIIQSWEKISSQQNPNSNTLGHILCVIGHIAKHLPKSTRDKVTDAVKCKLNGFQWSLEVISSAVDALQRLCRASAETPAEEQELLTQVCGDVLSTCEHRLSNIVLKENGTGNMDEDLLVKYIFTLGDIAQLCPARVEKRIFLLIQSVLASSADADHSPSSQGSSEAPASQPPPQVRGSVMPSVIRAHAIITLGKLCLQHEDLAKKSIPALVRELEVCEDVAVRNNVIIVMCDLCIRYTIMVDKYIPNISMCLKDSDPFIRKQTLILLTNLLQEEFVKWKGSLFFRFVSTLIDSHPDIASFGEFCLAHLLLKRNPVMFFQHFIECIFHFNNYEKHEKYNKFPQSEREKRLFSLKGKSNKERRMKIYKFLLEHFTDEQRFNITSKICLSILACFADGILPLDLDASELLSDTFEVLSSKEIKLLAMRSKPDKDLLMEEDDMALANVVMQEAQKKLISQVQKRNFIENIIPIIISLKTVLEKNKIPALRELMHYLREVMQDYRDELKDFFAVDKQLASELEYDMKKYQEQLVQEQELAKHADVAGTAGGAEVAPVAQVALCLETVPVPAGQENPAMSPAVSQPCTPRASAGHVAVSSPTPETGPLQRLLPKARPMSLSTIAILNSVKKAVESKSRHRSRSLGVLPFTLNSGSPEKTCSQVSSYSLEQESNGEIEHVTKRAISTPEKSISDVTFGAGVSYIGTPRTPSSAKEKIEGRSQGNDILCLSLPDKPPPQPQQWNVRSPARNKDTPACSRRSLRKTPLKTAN
UniProt O95299, whole entry, looked up: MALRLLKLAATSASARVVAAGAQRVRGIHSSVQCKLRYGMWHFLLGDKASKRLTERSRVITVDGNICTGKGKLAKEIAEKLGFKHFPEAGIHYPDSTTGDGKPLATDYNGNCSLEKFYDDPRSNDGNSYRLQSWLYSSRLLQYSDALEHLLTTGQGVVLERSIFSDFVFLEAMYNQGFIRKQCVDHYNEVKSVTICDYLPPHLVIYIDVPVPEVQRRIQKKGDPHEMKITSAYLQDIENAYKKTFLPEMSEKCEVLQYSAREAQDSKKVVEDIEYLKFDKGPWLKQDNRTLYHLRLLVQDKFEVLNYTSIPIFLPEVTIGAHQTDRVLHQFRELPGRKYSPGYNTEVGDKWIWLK
UniProt Q9H0A0: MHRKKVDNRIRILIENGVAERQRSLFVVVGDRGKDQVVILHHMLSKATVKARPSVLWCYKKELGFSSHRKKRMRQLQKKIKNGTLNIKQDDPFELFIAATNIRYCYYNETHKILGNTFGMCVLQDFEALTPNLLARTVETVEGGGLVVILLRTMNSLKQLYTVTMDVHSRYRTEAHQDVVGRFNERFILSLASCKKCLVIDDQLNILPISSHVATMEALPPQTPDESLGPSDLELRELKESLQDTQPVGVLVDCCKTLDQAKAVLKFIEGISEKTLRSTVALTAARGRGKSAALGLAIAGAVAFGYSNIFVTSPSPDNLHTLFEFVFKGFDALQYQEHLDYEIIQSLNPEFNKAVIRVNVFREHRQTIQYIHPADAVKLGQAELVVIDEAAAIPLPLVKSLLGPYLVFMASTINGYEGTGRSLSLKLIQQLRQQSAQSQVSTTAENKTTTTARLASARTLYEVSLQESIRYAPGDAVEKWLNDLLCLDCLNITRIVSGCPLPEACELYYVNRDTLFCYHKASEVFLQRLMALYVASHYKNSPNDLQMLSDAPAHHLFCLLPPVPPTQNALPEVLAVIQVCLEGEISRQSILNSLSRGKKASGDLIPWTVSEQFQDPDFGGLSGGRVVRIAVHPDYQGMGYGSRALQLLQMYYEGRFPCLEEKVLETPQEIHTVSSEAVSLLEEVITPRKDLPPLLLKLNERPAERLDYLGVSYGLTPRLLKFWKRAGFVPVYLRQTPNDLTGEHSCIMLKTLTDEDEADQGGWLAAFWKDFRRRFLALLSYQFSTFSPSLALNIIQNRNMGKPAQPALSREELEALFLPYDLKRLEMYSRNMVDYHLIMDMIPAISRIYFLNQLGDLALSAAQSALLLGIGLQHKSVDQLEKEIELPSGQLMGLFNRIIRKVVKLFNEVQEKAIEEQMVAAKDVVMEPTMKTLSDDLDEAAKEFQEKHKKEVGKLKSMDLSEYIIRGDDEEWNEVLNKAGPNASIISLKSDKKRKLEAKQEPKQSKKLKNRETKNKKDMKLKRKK
UniProt P51970, whole entry, looked up: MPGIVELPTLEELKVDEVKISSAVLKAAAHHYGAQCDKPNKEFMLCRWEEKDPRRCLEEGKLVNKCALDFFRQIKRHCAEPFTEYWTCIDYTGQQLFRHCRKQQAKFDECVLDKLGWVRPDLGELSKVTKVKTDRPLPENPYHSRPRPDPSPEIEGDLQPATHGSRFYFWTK
UniProt Q8NC96, 2-21: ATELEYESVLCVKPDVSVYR
UniProt Q9Y6Q9: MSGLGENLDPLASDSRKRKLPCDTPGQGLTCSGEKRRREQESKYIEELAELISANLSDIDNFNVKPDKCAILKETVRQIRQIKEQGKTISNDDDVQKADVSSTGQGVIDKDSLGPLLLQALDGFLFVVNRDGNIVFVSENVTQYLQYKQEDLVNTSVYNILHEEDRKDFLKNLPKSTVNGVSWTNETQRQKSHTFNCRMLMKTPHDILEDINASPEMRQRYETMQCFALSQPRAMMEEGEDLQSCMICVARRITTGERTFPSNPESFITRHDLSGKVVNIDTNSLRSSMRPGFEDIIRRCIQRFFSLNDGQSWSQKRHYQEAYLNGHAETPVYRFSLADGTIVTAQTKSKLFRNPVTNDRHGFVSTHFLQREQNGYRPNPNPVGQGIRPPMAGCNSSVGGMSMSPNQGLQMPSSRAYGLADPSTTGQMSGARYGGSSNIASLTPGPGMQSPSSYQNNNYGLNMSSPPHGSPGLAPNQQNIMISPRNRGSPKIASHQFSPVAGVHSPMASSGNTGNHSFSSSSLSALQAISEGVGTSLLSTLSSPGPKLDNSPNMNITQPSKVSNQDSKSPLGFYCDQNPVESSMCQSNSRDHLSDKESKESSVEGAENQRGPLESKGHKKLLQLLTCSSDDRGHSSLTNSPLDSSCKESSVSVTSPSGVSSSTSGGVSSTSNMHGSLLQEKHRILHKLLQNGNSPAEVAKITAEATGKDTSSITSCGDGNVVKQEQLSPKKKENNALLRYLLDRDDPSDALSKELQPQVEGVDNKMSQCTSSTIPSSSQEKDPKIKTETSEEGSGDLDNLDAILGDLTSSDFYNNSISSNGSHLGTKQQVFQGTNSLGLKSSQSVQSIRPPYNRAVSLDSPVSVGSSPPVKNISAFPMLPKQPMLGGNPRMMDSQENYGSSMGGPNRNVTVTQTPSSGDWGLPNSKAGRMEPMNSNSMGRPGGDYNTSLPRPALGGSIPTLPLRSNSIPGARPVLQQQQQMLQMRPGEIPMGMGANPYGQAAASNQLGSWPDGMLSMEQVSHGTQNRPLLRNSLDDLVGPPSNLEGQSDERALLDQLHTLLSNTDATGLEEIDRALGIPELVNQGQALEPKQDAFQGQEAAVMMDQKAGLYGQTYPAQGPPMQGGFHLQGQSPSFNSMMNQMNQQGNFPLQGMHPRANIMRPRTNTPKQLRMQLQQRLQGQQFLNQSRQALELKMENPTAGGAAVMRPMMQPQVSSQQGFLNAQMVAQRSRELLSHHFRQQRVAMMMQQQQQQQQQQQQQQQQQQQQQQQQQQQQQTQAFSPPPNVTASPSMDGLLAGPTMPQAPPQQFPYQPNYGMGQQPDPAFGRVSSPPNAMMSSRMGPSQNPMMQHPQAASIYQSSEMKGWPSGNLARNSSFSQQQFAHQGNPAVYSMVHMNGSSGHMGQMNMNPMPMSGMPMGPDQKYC
UniProt Q15021, whole entry, looked up: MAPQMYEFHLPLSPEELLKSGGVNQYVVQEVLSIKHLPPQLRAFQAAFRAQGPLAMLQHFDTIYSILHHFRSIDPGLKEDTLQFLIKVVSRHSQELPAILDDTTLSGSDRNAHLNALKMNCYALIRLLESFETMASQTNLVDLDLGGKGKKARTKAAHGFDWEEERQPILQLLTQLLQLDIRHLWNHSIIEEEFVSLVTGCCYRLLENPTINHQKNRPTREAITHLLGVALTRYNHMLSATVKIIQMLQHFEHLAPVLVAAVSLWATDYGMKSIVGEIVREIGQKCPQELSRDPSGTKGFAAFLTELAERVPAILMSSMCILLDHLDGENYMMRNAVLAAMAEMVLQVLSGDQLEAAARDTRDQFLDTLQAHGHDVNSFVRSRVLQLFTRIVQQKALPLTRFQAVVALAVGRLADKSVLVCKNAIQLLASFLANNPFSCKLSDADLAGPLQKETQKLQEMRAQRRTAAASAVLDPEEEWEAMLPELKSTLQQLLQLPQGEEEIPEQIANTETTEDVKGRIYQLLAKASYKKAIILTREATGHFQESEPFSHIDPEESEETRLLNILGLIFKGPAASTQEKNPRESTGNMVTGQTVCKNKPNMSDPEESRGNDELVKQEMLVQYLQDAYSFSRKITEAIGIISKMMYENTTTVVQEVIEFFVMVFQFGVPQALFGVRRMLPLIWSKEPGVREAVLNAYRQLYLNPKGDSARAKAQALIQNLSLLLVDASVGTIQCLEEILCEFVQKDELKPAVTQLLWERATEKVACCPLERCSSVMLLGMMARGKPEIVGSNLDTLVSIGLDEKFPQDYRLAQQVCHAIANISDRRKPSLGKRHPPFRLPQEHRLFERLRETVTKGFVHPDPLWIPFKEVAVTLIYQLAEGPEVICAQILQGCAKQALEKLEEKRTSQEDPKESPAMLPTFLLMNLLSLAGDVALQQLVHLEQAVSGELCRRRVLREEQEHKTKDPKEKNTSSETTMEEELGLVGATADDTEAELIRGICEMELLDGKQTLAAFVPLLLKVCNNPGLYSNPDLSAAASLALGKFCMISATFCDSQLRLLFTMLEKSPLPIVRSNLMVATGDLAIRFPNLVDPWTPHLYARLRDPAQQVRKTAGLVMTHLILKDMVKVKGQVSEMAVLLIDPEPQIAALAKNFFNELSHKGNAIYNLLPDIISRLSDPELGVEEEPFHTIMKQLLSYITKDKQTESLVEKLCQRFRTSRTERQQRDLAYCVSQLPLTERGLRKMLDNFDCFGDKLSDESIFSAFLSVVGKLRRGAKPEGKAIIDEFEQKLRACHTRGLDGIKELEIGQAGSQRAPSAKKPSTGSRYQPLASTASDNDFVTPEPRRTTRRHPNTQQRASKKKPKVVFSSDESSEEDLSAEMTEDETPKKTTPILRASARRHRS
UniProt Q9BYT8, whole entry, looked up: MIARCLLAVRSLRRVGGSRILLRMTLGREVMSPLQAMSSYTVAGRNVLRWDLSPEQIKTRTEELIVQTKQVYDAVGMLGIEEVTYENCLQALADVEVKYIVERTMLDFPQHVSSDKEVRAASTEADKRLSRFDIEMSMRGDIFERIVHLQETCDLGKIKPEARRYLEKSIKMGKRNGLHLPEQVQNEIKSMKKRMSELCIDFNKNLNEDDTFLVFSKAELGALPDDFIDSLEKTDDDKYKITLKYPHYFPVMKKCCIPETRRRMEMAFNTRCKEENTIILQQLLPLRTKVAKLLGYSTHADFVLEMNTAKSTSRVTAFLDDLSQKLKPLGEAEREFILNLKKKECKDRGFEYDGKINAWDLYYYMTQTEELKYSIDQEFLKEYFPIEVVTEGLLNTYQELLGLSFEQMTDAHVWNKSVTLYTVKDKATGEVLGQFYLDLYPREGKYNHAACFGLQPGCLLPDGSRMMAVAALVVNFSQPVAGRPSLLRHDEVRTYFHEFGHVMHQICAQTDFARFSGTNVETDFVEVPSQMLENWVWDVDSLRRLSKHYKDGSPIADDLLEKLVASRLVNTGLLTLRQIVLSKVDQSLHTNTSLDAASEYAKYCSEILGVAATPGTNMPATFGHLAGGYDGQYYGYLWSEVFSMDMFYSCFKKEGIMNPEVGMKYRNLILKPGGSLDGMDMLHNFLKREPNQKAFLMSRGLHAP

Each target was assayed with ClCC(=O)N[C@@H]1CCCc2ccccc12 (assay: log2 mean competition ratio of IA-DTB cysteine labelling (DMSO/compound) (log2 ratio); higher = stronger cysteine engagement by compound). Details: 50 µM; treatment time: 4 h; cell line lysate: HEK293T.
Protocol: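 IA-DTB competitive cysteine chemoproteomics in HEK293T RIPA lysate. Lysates were treated with compound 29 or 30 at 50 or 200 µM for 4 h, then IA-DTB (500 µM, 1 h), trypsin-digested, NeutrAvidin-enriched and analysed by diaPASEF. Competition ratio = intensity DMSO / intensity compound (n=4 treated, n=64 DMSO); binding: mean log2 CR ≥ 1 and p ≤ 0.05 plus QC filters. Target is the cysteine site.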

Target	log2 mean competition ratio
NF1 C1032 (UniProt P21359)	-0.119
NCAPD3 C1484 (UniProt P42695)	-0.0183
NDRG1 C49 (UniProt Q92597)	-0.306
NCAPG2 C184 (UniProt Q86XI2)	0.04
NDUFS6 C87 (UniProt O75380)	0.0257
NDUFAF4 C87 (UniProt Q9P032)	-0.0745
NCAPD3 C453 (UniProt P42695)	0.0268
NIPBL C1889 (UniProt Q6KC79)	-0.366
NBAS C406 (UniProt A2RRP1)	0.171
NDUFA10 C183 (UniProt O95299)	-0.174
NCAPD3 C330 (UniProt P42695)	0.0353
NDRG2_(C255,C255,C274,C274)	-0.589
NFXL1 C539 (UniProt Q6ZNB6)	-0.214
NAT10 C517 (UniProt Q9H0A0)	-0.0329
NCKIPSD C700 (UniProt Q9NZQ3)	-0.107
NAV2 C1288 (UniProt Q8IVL1)	-0.127
NEK9 C623 (UniProt Q8TD19)	0.632
NDUFA8 C110 (UniProt P51970)	0.0388
NECAP1 C162 (UniProt Q8NC96)	0.107

Target	log2 mean competition ratio
NOL6 C1034 (UniProt Q9H6R4)	-0.181
NDUFV1 C142	0.0192
NEFL C322	-0.232
NCAPD3 C952 (UniProt P42695)	-0.115
NCOA3 C769 (UniProt Q9Y6Q9)	0.023
NDUFA11 C18 (UniProt Q86Y39)	-0.425
NCAPH2 C230 (UniProt Q6IBW4)	-0.129
NBPF19;NBPF26;NBPF20;NBPF9;NBPF1;NBPF8;NBPF12;NBPF14;NBPF10 C589(C833)(C1077)(C1321)(C1565)(C1809)(C2053)(C2297)(C2541)(C2785)(C3029)(C3273)(C3517)(C3761);(C820);(C245)(C489)(C733)(C977)(C1221)(C1709)(C1953)(C2197)(C2441)(C2685)(C2929)(C3173)(C3417)(C3661)(C3905)(C4393)(C4562)(C4881)(C5125);(C1029);(C1132);(C825);(C1131)(C1375);(C520)(C839);(C860)(C1104)(C1348)(C1592)(C1836)(C2080)(C2324)(C2568)(C2812)(C3056)(C3300)(C3544)(C3713)	0.147
NME7 C228 (UniProt Q9Y5B8)	-0.266
NBEA C457 (UniProt Q8NFP9)	-0.14
NAT10 C746 (UniProt Q9H0A0)	-0.325
NKD1 C112	-0.102
NCAPD2 C1249 (UniProt Q15021)	0.28
NFX1 C684 (UniProt Q12986)	-0.118
NLN C199 (UniProt Q9BYT8)	0.0663
NKRF C37 (UniProt O15226)	0.389
NCAPD3 C631 (UniProt P42695)	0.0261
NECAP1 C12 (UniProt Q8NC96)	-0.109

Same assay, conditions: 200 µM; treatment time: 4 h; cell line lysate: HEK293T

Target	log2 mean competition ratio
NF1 C1032 (UniProt P21359)	0.428
NCAPD3 C1484 (UniProt P42695)	0.305
NDRG1 C49 (UniProt Q92597)	-0.459
NCAPG2 C184 (UniProt Q86XI2)	0.31
NDUFS6 C87 (UniProt O75380)	0.146
NDUFAF4 C87 (UniProt Q9P032)	-0.0954
NCAPD3 C453 (UniProt P42695)	-0.0515
NIPBL C1889 (UniProt Q6KC79)	-0.0453
NBAS C406 (UniProt A2RRP1)	-0.217
NDUFA10 C183 (UniProt O95299)	0.146
NCAPD3 C330 (UniProt P42695)	0.53
NDRG2_(C255,C255,C274,C274)	-0.00655
NFXL1 C539 (UniProt Q6ZNB6)	0.0633
NAT10 C517 (UniProt Q9H0A0)	-0.416
NCKIPSD C700 (UniProt Q9NZQ3)	0.252
NAV2 C1288 (UniProt Q8IVL1)	-0.183
NEK9 C623 (UniProt Q8TD19)	0.534
NDUFA8 C110 (UniProt P51970)	0.656
NECAP1 C162 (UniProt Q8NC96)	-0.0342

Target	log2 mean competition ratio
NOL6 C1034 (UniProt Q9H6R4)	0.473
NDUFV1 C142	-0.0991
NEFL C322	0.00049
NCAPD3 C952 (UniProt P42695)	0.0722
NCOA3 C769 (UniProt Q9Y6Q9)	-0.188
NDUFA11 C18 (UniProt Q86Y39)	0.406
NCAPH2 C230 (UniProt Q6IBW4)	0.117
NBPF19;NBPF26;NBPF20;NBPF9;NBPF1;NBPF8;NBPF12;NBPF14;NBPF10 C589(C833)(C1077)(C1321)(C1565)(C1809)(C2053)(C2297)(C2541)(C2785)(C3029)(C3273)(C3517)(C3761);(C820);(C245)(C489)(C733)(C977)(C1221)(C1709)(C1953)(C2197)(C2441)(C2685)(C2929)(C3173)(C3417)(C3661)(C3905)(C4393)(C4562)(C4881)(C5125);(C1029);(C1132);(C825);(C1131)(C1375);(C520)(C839);(C860)(C1104)(C1348)(C1592)(C1836)(C2080)(C2324)(C2568)(C2812)(C3056)(C3300)(C3544)(C3713)	0.0821
NME7 C228 (UniProt Q9Y5B8)	0.0788
NBEA C457 (UniProt Q8NFP9)	-0.108
NAT10 C746 (UniProt Q9H0A0)	0.34
NKD1 C112	-0.0246
NCAPD2 C1249 (UniProt Q15021)	0.4
NFX1 C684 (UniProt Q12986)	0.09
NLN C199 (UniProt Q9BYT8)	-0.00313
NKRF C37 (UniProt O15226)	-0.265
NCAPD3 C631 (UniProt P42695)	-0.0957
NECAP1 C12 (UniProt Q8NC96)	-0.329
